According to the supplement of paper PMC10849652:
Some of the results follow.

Amino acid sequences for entries named in this document (tags omitted). A change or cut given only in a name is not applied to a line headed by its entry.
UniProt Q99574: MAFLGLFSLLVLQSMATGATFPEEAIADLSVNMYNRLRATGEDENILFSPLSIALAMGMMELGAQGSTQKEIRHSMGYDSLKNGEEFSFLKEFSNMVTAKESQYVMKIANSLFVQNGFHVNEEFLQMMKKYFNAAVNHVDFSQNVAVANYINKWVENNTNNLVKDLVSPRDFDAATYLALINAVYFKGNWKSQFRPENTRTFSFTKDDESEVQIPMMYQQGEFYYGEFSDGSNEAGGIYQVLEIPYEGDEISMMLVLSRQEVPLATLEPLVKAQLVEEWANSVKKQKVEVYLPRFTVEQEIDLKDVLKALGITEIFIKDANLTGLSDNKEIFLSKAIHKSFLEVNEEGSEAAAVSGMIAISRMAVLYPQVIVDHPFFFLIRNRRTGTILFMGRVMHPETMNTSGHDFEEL
UniProt Q96BD8: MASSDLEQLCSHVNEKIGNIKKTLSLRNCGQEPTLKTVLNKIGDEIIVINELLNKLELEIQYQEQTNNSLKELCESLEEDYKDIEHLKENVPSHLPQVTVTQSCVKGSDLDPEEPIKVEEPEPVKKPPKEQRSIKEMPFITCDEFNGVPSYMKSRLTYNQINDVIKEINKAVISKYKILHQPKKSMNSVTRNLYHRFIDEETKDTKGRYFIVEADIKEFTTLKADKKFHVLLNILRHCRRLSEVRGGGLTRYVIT
UniProt Q13530: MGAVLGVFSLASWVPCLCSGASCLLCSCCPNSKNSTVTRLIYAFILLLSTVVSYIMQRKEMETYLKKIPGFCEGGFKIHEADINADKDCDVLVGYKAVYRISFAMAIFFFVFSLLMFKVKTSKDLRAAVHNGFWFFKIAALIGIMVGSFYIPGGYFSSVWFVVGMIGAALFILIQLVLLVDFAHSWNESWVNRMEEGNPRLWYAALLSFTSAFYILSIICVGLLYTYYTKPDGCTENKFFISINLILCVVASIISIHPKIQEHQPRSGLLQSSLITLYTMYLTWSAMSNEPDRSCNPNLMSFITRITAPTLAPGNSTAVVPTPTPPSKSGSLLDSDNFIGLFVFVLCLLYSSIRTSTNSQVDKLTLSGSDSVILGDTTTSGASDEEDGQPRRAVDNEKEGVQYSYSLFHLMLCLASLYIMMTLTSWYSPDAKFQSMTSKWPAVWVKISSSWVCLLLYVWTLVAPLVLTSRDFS
UniProt Q9H9B4: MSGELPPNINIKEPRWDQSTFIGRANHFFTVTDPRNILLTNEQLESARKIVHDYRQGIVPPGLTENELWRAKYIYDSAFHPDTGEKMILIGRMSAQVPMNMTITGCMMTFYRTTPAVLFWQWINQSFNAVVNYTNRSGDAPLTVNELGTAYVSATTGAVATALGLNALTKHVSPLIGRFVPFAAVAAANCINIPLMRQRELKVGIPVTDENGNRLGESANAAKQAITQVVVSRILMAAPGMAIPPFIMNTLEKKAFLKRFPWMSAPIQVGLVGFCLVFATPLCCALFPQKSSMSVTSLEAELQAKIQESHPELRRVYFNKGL
UniProt Q9UQ13: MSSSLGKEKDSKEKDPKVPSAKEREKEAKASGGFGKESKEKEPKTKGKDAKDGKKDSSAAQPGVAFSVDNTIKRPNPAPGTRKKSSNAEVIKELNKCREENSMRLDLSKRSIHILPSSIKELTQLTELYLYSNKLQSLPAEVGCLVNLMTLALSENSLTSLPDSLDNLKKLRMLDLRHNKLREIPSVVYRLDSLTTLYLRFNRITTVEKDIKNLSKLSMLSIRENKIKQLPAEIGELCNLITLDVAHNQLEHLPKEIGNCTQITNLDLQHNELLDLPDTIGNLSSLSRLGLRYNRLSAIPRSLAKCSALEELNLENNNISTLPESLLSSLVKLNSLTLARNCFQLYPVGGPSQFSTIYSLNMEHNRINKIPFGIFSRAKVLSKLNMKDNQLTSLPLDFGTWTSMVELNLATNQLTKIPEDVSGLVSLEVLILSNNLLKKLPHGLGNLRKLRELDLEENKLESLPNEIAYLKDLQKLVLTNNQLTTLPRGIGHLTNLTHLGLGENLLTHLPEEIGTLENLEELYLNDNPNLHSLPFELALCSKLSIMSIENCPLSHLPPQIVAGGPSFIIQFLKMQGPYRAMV
UniProt Q9H173: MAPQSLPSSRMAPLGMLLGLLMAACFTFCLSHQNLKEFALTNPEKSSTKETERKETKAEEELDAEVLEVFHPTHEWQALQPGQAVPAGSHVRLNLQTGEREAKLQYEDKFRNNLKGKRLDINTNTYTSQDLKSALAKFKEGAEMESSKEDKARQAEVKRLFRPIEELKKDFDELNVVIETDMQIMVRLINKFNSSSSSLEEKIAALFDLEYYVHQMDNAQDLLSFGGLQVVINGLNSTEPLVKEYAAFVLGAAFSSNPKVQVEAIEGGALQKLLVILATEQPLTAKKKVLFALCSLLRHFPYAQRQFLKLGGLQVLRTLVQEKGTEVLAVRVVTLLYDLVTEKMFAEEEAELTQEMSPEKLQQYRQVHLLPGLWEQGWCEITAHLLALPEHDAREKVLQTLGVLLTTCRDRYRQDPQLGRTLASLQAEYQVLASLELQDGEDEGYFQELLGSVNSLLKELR
UniProt Q15393: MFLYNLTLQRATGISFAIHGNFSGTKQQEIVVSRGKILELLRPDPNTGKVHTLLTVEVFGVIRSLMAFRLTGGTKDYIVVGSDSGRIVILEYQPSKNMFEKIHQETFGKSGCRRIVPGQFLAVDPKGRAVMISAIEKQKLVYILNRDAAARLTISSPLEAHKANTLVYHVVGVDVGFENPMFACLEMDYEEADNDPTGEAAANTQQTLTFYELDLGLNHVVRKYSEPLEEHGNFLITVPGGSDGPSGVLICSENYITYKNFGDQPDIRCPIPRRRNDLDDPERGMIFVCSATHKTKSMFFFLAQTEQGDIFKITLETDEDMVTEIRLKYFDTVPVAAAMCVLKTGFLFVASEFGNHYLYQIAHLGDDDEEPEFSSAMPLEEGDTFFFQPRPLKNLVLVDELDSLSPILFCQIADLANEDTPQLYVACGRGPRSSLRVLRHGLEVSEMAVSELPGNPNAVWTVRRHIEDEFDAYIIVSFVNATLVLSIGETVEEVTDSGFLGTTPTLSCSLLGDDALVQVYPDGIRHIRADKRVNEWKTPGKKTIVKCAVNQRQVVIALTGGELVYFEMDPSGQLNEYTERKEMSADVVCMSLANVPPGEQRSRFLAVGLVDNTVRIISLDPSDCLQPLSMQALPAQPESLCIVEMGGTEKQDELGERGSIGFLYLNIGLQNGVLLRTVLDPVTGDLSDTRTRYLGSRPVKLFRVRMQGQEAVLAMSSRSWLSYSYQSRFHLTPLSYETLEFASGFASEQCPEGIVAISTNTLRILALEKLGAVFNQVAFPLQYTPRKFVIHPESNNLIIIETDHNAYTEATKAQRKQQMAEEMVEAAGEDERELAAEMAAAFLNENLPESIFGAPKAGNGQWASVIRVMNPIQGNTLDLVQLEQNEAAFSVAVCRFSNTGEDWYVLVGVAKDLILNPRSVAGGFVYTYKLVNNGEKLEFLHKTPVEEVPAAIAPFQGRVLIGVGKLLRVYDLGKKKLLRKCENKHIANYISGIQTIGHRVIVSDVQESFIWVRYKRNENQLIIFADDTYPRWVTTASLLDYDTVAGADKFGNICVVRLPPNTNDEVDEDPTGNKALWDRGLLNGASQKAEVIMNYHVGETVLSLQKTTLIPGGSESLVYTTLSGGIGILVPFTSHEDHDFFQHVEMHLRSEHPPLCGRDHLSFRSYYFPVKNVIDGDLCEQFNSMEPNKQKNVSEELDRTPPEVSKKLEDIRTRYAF
UniProt P31947: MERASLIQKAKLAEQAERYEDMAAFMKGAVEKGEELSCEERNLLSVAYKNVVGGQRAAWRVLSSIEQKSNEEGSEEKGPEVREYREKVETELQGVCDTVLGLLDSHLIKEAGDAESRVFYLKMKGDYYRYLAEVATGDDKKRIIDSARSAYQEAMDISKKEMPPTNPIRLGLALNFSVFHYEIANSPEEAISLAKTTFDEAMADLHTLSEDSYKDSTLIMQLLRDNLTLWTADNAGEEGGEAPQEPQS
UniProt P49281: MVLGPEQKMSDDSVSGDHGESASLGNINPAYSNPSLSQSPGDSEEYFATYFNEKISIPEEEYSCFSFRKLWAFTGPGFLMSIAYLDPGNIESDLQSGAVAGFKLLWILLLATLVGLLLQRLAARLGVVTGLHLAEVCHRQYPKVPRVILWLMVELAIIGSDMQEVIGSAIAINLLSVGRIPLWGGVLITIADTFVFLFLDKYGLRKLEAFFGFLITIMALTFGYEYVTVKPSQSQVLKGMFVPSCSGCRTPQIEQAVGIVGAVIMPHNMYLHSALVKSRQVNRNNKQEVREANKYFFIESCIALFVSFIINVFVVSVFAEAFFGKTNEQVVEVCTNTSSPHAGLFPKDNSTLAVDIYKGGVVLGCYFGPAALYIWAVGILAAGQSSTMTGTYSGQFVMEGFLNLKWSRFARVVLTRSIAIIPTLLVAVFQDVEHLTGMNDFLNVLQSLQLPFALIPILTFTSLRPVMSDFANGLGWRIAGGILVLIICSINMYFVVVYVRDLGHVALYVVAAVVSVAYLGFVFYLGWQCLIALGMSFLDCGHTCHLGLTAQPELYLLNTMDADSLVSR
UniProt P84101: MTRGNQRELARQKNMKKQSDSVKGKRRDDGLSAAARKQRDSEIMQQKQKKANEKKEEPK
UniProt Q8NC51: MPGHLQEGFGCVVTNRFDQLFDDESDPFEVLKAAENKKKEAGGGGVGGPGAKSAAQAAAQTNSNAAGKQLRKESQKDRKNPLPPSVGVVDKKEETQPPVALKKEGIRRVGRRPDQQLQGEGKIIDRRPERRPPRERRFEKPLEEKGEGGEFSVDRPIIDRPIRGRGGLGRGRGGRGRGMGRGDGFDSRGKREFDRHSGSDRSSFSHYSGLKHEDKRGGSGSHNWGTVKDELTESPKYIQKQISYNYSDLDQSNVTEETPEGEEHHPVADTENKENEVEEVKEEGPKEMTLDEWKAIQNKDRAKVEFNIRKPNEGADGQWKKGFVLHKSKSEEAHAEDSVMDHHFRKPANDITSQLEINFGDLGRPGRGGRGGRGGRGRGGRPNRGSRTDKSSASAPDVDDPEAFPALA
UniProt Q8IXJ6: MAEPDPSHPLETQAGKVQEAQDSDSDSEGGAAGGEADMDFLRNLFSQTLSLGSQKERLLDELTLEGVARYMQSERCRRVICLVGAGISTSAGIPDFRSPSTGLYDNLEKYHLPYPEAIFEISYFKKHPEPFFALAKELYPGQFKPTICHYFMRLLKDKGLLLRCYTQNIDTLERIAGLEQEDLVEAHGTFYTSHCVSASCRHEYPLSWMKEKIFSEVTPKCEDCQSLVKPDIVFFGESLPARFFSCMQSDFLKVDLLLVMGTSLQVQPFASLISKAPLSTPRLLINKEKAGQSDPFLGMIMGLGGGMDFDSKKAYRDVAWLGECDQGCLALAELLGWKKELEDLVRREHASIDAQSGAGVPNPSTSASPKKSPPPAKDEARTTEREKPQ
UniProt Q9BX95: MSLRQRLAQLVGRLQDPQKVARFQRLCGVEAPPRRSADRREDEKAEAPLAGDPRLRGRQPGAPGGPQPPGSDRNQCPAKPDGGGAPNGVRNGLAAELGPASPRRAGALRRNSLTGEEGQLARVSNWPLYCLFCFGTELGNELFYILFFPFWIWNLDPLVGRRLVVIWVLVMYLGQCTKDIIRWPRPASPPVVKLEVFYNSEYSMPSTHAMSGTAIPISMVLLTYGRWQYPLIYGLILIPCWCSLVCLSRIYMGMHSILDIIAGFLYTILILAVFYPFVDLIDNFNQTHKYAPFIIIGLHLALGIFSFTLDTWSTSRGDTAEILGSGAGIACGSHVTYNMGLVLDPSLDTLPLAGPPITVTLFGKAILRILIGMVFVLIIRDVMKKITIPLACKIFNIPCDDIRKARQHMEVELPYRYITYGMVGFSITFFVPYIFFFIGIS
UniProt Q9Y3L3: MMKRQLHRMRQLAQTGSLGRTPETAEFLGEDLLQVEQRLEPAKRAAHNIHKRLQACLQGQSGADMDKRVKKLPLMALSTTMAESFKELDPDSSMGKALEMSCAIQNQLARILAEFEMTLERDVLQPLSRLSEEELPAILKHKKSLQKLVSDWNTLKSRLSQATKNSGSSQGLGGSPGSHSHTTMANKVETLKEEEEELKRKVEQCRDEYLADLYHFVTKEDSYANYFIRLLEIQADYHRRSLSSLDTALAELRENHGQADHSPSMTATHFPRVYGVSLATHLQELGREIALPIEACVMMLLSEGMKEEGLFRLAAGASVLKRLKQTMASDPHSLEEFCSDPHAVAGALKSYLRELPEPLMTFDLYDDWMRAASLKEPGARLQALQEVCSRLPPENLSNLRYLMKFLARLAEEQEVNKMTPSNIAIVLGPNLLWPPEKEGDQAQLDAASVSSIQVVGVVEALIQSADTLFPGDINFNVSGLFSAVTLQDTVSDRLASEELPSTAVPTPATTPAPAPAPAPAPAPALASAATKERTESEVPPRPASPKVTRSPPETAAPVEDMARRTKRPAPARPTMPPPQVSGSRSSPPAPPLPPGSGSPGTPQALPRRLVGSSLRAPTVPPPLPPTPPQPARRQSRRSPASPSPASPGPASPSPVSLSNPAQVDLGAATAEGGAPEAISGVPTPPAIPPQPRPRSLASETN

How the values were obtained:
Assay in all cases: log2 fold change, soluble protein after heating vs DMSO (PISA); higher = thermal stabilisation; K562 lysate, 10 uM; active = over 0.2 and 3.5 SD of the protein, either way, in both replicates (recomputed)
[1] = compound: C#Cc1cccc(Nc2ncnc3cc(OCCOC)c(OCCOC)cc23)c1 [erlotinib]
In short: (§1)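 Quantification was by TMTpro 16plex LC-MS/MS with equalised channel sums, applied to the supernatant after 21,000xg for 90 min. Samples were crude K562 extract at 1 mg/mL protein in PBS pH 7.4 with 1 mM MgCl2, treated with 10 μM compound for 30 min, heated for 3 min across 48°C-58°C, pooled and brought to 0.5% NP-40 at 4°C. Values are log-two fold changes in thermal stability relative to solvent controls, from duplicates.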

[2] = compound: C/C(=N\NC(=O)C1=CC(=CC=C1)S(=O)(=O)N2CCOCC2)/C3=C(C=CC(=C3)Cl)O
In short: as §1

[3] = compound: C1=CC(=CC=C1C2=NC3=C(N2)C=C(C=C3)C(=O)N)OC4=CC=C(C=C4)Cl
In short: as §1

[4] = compound: C1=CC2=C(C=CC(=C2)/C=C\3/C(=O)NC(=NCC4=CC=CS4)S3)N=C1
In short: as §1

[5] = compound: C1=CC2=NC=CN=C2C=C1/C=C/3\C(=O)NC(=O)S3
In short: as §1

[6] = compound: C1=CC=C(C=C1)C2=NC(=C(N2)C3=CC=NC=C3)C4=CC(=C(C=C4)Cl)O
In short: as §1

[7] = compound: C1=CC=C2C(=C1)C3=NNC4=CC=CC(=C43)C2=O
In short: as §1

[8] = compound: C1CCN(C1)C(=O)NC2=CC=CC(=C2)NC3=NC=C(C(=N3)NCCC4=CN=CN4)Br
In short: as §1

[9] = compound: C1CN(CCC1(CC2=CC=C(C=C2)Cl)N)C3=NC=NC4=C3C=CN4
In short: as §1

[10] = compound: C1COCCN1CCN2C3=CC=CC=C3N=C2NC(=O)C4=CC(=CC=C4)[N+](=O)[O-] [IRAK-1-4 Inhibitor I]
In short: as §1

[11] = compound: C=CC(=O)N1CCC[C@@H](n2nc(-c3ccc(Oc4ccccc4)cc3)c3c(N)ncnc32)C1 [ibrutinib]
In short: as §1

[12] = compound: CC(=O)c1cnc2ccc(-c3cc(Cl)c(O)c(Cl)c3)nc2c1N[C@H]1CC[C@H](CN(C)C)CC1
In short: as §1

[13] = compound: CC(C)(C)Cn1c(N)nc2ccc(-c3[nH]c(C(C)(C)C)nc3-c3ccc(F)cc3)nc21 [ralimetinib]
In short: as §1

[14] = compound: CC(C)(O)CC(=O)NCCn1ccc2ncnc(Nc3ccc(Oc4cccc(C(F)(F)F)c4)c(Cl)c3)c21
In short: as §1

[15] = compound: CC(C)C1=C2N=C(C=C(N2N=C1)NCC3=CC=CC=C3)NCCCCCCN
In short: as §1

[16] = compound: CC1=C(C(CC(=O)N1)C2=CC=C(C=C2)C(F)(F)F)C(=O)NC3=C(C=C4C(=C3)C=NN4)F
In short: as §1

[17] = compound: CC1=C(C2=C(C=C1)C(=O)C3=CC=CC=C3N2CCCN)C
In short: as §1

[18] = compound: CC1=C(C=C(C=C1)NC(=O)C2=CC(=CC=C2)C(C)(C)C#N)NC3=CC4=C(C=C3)N=CN(C4=O)C
In short: as §1

[19] = compound: CC1=C(C=C(C=C1)NC(=O)C2=CC(=CC=C2)N(C)C)NC(=O)C3=CC=C(C=C3)O
In short: as §1

[20] = compound: CC1=CC=C(C=C1)SC2=C3C=C(SC3=CN=C2)C(=O)N
In short: as §1

Measured: log2 fold change

SERPINI1 (UniProt Q99574)
inactive: [1] -0.003 | [2] -0.021 | [3] -0.037 | [4] 0.027 | [5] 0.054 | [6] -0.007 | [7] -0.117 | [8] 0.029 | [9] 0.038 | [10] 0.031 | [11] 0.063 | [12] 0.075 | [13] 0.001 | [14] 0.024 | [15] 0.005 | [16] 0.056 | [17] 0.004 | [18] -0.024 | [19] -0.028 | [20] -0.054

SKA1 (UniProt Q96BD8)
inactive: [1] -0.029 | [2] -0.015 | [3] 0.029 | [4] 0.072 | [5] -0.062 | [6] 0.065 | [7] -0.06 | [8] 0.02 | [9] -0.094 | [10] 0.013 | [11] 0.002 | [12] 0.033 | [13] -0.023 | [14] -0.017 | [15] 0.044 | [16] 0.014 | [17] 0.066 | [18] -0.017 | [19] 0.033 | [20] 0.007

SERINC3 (UniProt Q13530)
inactive: [1] 0.068 | [2] 0.145 | [3] 0.065 | [4] 0.073 | [5] 0.021 | [6] -0.02 | [7] -0.101 | [8] -0.03 | [9] 0.024 | [10] 0.018 | [11] 0.06 | [12] -0.082 | [13] 0.01 | [14] -0.003 | [15] -0.016 | [16] -0.012 | [17] -0.055 | [18] 0.049 | [19] -0.042 | [20] -0.011

SFXN1 (UniProt Q9H9B4)
inactive: [1] 0.007 | [2] 0.034 | [3] -0.085 | [4] -0.024 | [5] 0.03 | [6] -0.027 | [7] 0.007 | [8] -0.005 | [9] 0 | [10] -0.004 | [11] -0.026 | [12] -0.012 | [13] 0.005 | [14] -0.074 | [15] -0.063 | [16] 0.019 | [17] 0.021 | [18] 0.033 | [19] 0.011 | [20] 0.025

SHOC2 (UniProt Q9UQ13)
inactive: [1] 0.054 | [2] 0.021 | [3] -0.015 | [4] -0.02 | [5] -0.016 | [6] 0.005 | [7] 0 | [8] 0.013 | [9] -0.003 | [10] 0.007 | [11] -0.003 | [12] 0.028 | [13] -0.025 | [14] -0.033 | [15] 0.002 | [16] 0.017 | [17] 0.036 | [18] -0.005 | [19] 0.042 | [20] 0.009

SLAIN2 (UniProt Q9P270)
inactive: [1] 0.019 | [2] -0.002 | [3] 0.059 | [4] 0.01 | [5] -0.095 | [6] -0.003 | [7] 0 | [8] -0.027 | [9] 0.046 | [10] 0.002 | [11] 0.064 | [12] -0.004 | [13] -0.007 | [14] -0.028 | [15] 0.013 | [16] -0.013 | [17] -0.023 | [18] 0.008 | [19] -0.005 | [20] -0.002

SHFL (UniProt Q9NUL5)
inactive: [1] -0.009 | [2] -0.031 | [3] 0.055 | [4] 0.124 | [5] 0.035 | [6] 0.013 | [7] -0.005 | [8] -0.021 | [9] 0.02 | [10] -0.03 | [11] 0.103 | [12] -0.055 | [13] -0.071 | [14] -0.066 | [15] -0.042 | [16] 0.104 | [17] 0.016 | [18] 0.071 | [19] 0 | [20] -0.055

SIL1 (UniProt Q9H173)
inactive: [1] 0.018 | [2] -0.169 | [3] -0.008 | [4] 0.016 | [5] -0.019 | [6] 0.044 | [7] 0.01 | [8] -0.025 | [9] 0.04 | [10] 0.049 | [11] 0.005 | [12] -0.015 | [13] 0.063 | [14] -0.104 | [15] -0.012 | [16] 0.046 | [17] -0.019 | [18] -0.027 | [19] -0.034 | [20] -0.011

SF3B3 (UniProt Q15393)
inactive: [1] -0.012 | [2] -0.002 | [3] 0 | [4] -0.025 | [5] 0.003 | [6] 0.01 | [7] -0.005 | [8] 0.009 | [9] 0.005 | [10] 0.03 | [11] 0 | [12] 0.007 | [13] 0.001 | [14] -0.024 | [15] -0.011 | [16] 0.003 | [17] -0.023 | [18] 0.041 | [19] -0.011 | [20] 0.001

SFN (UniProt P31947)
inactive: [1] 0.013 | [2] -0.239 | [3] -0.006 | [4] -0.053 | [5] -0.002 | [6] -0.004 | [7] 0.025 | [8] 0.012 | [9] -0.064 | [10] -0.03 | [11] 0.015 | [12] 0.01 | [13] -0.002 | [14] 0.035 | [15] 0.016 | [16] 0.045 | [17] 0.031 | [18] -0.036 | [19] -0.004 | [20] -0.021

2 successive records out of the list so far, quoted:
SF3B3 (UniProt Q15393)
inactive: [1] -0.012 | [2] -0.002 | [3] 0 | [4] -0.025 | [5] 0.003 | [6] 0.01 | [7] -0.005 | [8] 0.009 | [9] 0.005 | [10] 0.03 | [11] 0 | [12] 0.007 | [13] 0.001 | [14] -0.024 | [15] -0.011 | [16] 0.003 | [17] -0.023 | [18] 0.041 | [19] -0.011 | [20] 0.001

SFN (UniProt P31947)
inactive: [1] 0.013 | [2] -0.239 | [3] -0.006 | [4] -0.053 | [5] -0.002 | [6] -0.004 | [7] 0.025 | [8] 0.012 | [9] -0.064 | [10] -0.03 | [11] 0.015 | [12] 0.01 | [13] -0.002 | [14] 0.035 | [15] 0.016 | [16] 0.045 | [17] 0.031 | [18] -0.036 | [19] -0.004 | [20] -0.021

(listing goes on)

SLC11A2 isoform 3 (UniProt P49281)
inactive: [1] -0.005 | [2] -0.041 | [3] -0.009 | [4] -0.013 | [5] 0 | [6] 0.011 | [7] 0.046 | [8] -0.004 | [9] 0.026 | [10] 0.024 | [11] -0.032 | [12] -0.018 | [13] -0.038 | [14] -0.093 | [15] 0.017 | [16] 0.242 | [17] -0.001 | [18] 0.094 | [19] 0.001 | [20] 0.003

SERF2 (UniProt P84101)
inactive: [1] -0.057 | [2] -0.08 | [3] 0.066 | [4] -0.026 | [5] -0.042 | [6] -0.02 | [7] 0.093 | [8] -0.052 | [9] -0.038 | [10] -0.022 | [11] -0.005 | [12] -0.062 | [13] -0.016 | [14] -0.09 | [15] -0.012 | [16] 0.02 | [17] -0.039 | [18] 0.047 | [19] 0.007 | [20] 0.029

SERBP1 (UniProt Q8NC51)
inactive: [1] 0.001 | [2] -0.022 | [3] 0.011 | [4] 0.032 | [5] -0.03 | [6] 0.034 | [7] 0.048 | [8] -0.004 | [9] -0.065 | [10] -0.015 | [11] 0.006 | [12] -0.019 | [13] -0.046 | [14] -0.013 | [15] 0.007 | [16] -0.03 | [17] 0.001 | [18] -0.023 | [19] -0.01 | [20] -0.007

SIRT2 (UniProt Q8IXJ6)
inactive: [1] -0.04 | [2] -0.056 | [3] 0.002 | [4] 0.029 | [5] -0.036 | [6] 0.023 | [7] 0.048 | [8] -0.033 | [9] -0.042 | [10] -0.051 | [11] -0.01 | [12] -0.044 | [13] 0.006 | [14] 0.087 | [15] -0.015 | [16] 0.043 | [17] 0 | [18] -0.009 | [19] -0.014 | [20] 0.003

SGPP1 (UniProt Q9BX95)
inactive: [1] -0.013 | [2] 0.081 | [3] -0.066 | [4] 0.082 | [5] 0.065 | [6] 0.07 | [7] -0.097 | [8] 0.089 | [9] -0.233 | [10] -0.009 | [11] 0.026 | [12] 0.021 | [13] -0.03 | [14] -0.095 | [15] 0.021 | [16] -0.028 | [17] 0.034 | [18] -0.005 | [19] 0.029 | [20] 0.016

SH3BP1 (UniProt Q9Y3L3)
inactive: [1] 0.005 | [2] -0.041 | [3] 0.034 | [4] -0.022 | [5] -0.03 | [6] 0.003 | [7] -0.008 | [8] 0.004 | [9] 0.004 | [10] 0.028 | [11] -0.012 | [12] 0.025 | [13] -0.051 | [14] 0.01 | [15] -0.013 | [16] -0.02 | [17] -0.031 | [18] 0.081 | [19] -0.031 | [20] -0.02
